This passage reports z-score results from PubChem BioAssay AID1508600 (Functional Genomics Laboratory (NCATS/FGL), 2020).

Out of some 53,000 sequences screened, about 3,700 (7%) were called active.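 Rule for the calls: active = gene knockdowns whose robust z-score for IL-1 alpha signal is at least 2 or at most -2, so actives lie on both sides; inactive = the rest.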 The list shows a part of the results.

A short description of this assay: Components of the Cytosolic LPS Sensing Pathway: Gene Identification via Genome-wide siRNA Screen.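 Note: robust z of the log signal after scaling to non-targeting control siRNA wells of the plate.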 Particulars: RAW264.7 macrophages, IL-1a HTRF, actives lie on both sides, screened at 100 nM (by protocol), cells primed 5 h with Pam3CSK4 first. Put shortly: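 Read-out: IL-1a HTRF on supernatant, divided by plate negative-control median ×100, log-transformed and converted to robust z-score. Cells were RAW264.7 given 100 nM siRNA, Pam3CSK4-primed 5 hours, then LipidA-transfected 24 hour.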
On to GGUGCAGAAUCUCUCAUUGTT against Mrpl30, for which the z-score is active: -2.14.
Consider GGCCGAACCUGUCAAAGAATT against Hif3a, for which the z-score is inactive: 0.615.
In the case of AUGGAUAGGGAUUAAGAGCTT against Scn4b, the z-score is inactive: 1.
For the sequence GCUGUGGAGUCAAGAACAGTT against Zfp317, the z-score was inactive: -0.31.
Turning to GAGACAGAUAGGCAGAAAATT against Olfr478, the z-score was inactive: -1.02.
With “GCUUCCUAACCAGGUUUGATT against 4430402I18Rik”, the z-score is active: 2.1.
Regarding GGAGGAGAGGUACAAACGGTT against Cxxc1, the z-score was inactive: -1.04.
“GGCUUACAUACUUGAAUUGTT against 9430015G10Rik”: the z-score was inactive: 0.873.
As for GGAGGUCUGUGCUUACUUGTT against Fnbp4, the figure is inactive: 1.72; as for CCAAUUGAAACUCUUUUCCTT against Thada, inactive: 0.562.
As for GGCAAAAACCAUAAACUAGTT against Clcn4, the z-score is inactive: -0.27.
Regarding GGGCGGUUCAAAAGGUCAGTT against Cacnb1, the z-score is active: 2.27.
On to GGCCUCAGUUGGACUUGAATT against Scn10a, for which the z-score is inactive: -0.352.
As for GGAAAAAAAAGACCUAGGATT against Pik3ip1, the figure is inactive: -0.475.
Turning to GCUUUAUCACCGAUGUCGATT against Slc29a4, the z-score is inactive: -0.782.
As for CGAUGGCCUGAAUCACUUGTT against Hbb-b1, the figure is inactive: -0.122.
The result for GGCUAUCAUGAACUUGGAUTT against Gpd2 reads inactive: -0.57.
In the case of GGGAUUUGGUUUCGUAACUTT against Rbfox1, the z-score is inactive: -1.08.
Take GGGCUACAUAGGCUUAGACTT against Ptpru: the z-score is inactive: 0.064.
The result for GGACACACAUCAUUGCCCATT against Olfr649 reads inactive: -1.65.
As for GGAGGAGCUAUACAAAGCCTT against Rab3il1, the figure is inactive: -0.918; as for GGUUAAGAGCGUACGUUUUTT against Tmem204, inactive: 1.46; as for GGACAUUAAAAGUCUCUUATT against Kbtbd3, inactive: 0.292.
In the case of GGUAAAGAUCGACCUUUUGTT against Stx8, the z-score is inactive: -0.108.
Regarding CGUGAUUUCAGUGAGGGUGTT against Tarsl2, the z-score is inactive: 0.996.
As for GCCCUAGUGUCUGAAAAAATT against Sfrp5, the z-score is inactive: 0.864.
With GGAAAAAUGACUUUUUGUGTT against Zfp799, the z-score was inactive: 0.249.
As to UCGAGGAGUAGUAGCUUAATT against Acsl5, the z-score was inactive: -0.537.
Take GCAGCAUGGCAAAACCACATT against Zbtb12: the z-score was inactive: -0.265.
The result for GGUUUCCACCAAACAAAACTT against Bmp3 reads inactive: 0.513; that for GCAAGUGGCUGAGUACUAATT against R74862, inactive: 1.05; that for CCAACACUACCAGAGAACGTT against Pfkfb1, inactive: -0.808.
On to GGUGGAGACUGUGUCUAGUTT against Agbl5, for which the z-score was inactive: 1.17.
As to GGCUUAUUGUAGAAAAUCUTT against Srsf6, the z-score is inactive: 0.103.
For CGGUAGCCAUAUUAAUAUCTT against Spink2, the z-score was inactive: 0.417.
As for “GCCUCUUCGAACUCACUAUTT against St6galnac3”, the z-score is inactive: -0.807.
On to “CGAUGAAGCCGGAUUGAGATT against 1700010H22Rik”, for which the z-score is inactive: -0.0388.
GGAAUAAGGAAGUAAAGAUTT against Olfr958: the z-score was inactive: -1.18.
The result for GGGUUUUCACUCAAAAAAATT against Aup1 reads inactive: 0.127; that for GGGAUUCACUCUUCUUUAGTT against Sebox, inactive: 1.97; that for CGCGAUGGAACCAUAGUCATT against Nagpa, inactive: -1.3.
As for GCCAUUCUAAGAGGGCCUCTT against Stk10, the figure is inactive: -0.0026; as for GGGAAGAGCAGAAGUCUGUTT against Myod1, inactive: -0.239.
As for GCUUGGAGAUGAACUCUAATT against Olfr533, the z-score was inactive: 0.514.
For GGAUGUGGUUCAGAAGGCCTT against Stab1, the z-score is inactive: -0.29.
As for GCCGUUACCGAUCUCUCCATT against Zfp61, the figure is inactive: -0.176; as for GGAUGCUCUCUUAAAUGGATT against Gbp6, inactive: 0.327.
For GGAAGACAACUGUUGUGGCTT against Dagla, the z-score is inactive: -0.54.
For GUUUAUCCACAUUGCCUUCTT against Olfr559, the z-score was inactive: 0.431.
With GCCUGUAAAGGUGGCUAAGTT against Ciao3, the z-score is inactive: 1.33.
As for GCGUGGGAUGCUCAUUUUATT against Xkr7, the figure is inactive: 0.16; as for GCUUAAUGAACUGUCCUCUTT against Acan, inactive: 0.0581.
With GGCUCCGGUAAAGCUAUAUTT against Cacul1, the z-score is inactive: 0.489.
Take GGUUCGGGUAAAUAGUUCCTT against Nemp1: the z-score was inactive: 0.541.
For GCAUACAGGAUUUACCGGCTT against Higd1b, the z-score was inactive: -0.647.
As for GCUUCAUCCACCAUUAAUCTT against Rabgap1, the figure is inactive: 0.833.
With GGAAGAAGAACCAAAGCCCTT against Sarnp, the z-score is inactive: -1.09.
In the case of GGUGAAAUGAGAAUACUUGTT against Erap1, the z-score is inactive: 1.07.
For GCUUCUGCUAUAUGUGCAGTT against Rnf186, the z-score was inactive: 1.44.
Take CGAAUUAUCAAUAAGCACATT against Mettl3: the z-score was inactive: 0.118.
The result for GGUUCUGGACAGAUGCUGUTT against Nags reads inactive: 1.17; that for GCAGCAGUGAAAUAGCUUCTT against Eya1, inactive: -0.643; that for CCCAAGAUGGUAGCAGACATT against Tbxas1, inactive: -0.00814.
On to CCUAAGUUCCUGAAAAUAUTT against Epha5, for which the z-score is inactive: -0.454.
As for GGAAAUAUAUCUCUAUCUCTT against Xylt2, the figure is inactive: 0.669; as for GGUAAUGUACCUAAUAUUGTT against Cnn1, inactive: 0.307.
Take GCCCUCAACCAUAAUUCAATT against Zscan21: the z-score is active: 2.15.
As to GUCAGAGCCUCUGUCUUUUTT against Olfr342, the z-score is inactive: 0.877.
The result for CCUACUAGAAACUUCCUGATT against Cgrrf1 reads inactive: -0.965; that for CCGAAGCACUUGCUGGUAUTT against Cerk, inactive: 1.95.
Take CCCAAAGCUCUUGCUACUUTT against Olfr823: the z-score was inactive: -1.01.
On to GGAAUGAAAGAGAAAGAUUTT against Klhl9, for which the z-score is inactive: -1.74.
On to GCUUUAUCCACAGGUGCCATT against Olfr1350, for which the z-score was inactive: -1.9.
Take GGAAGCCCUUUCCGUCCUUTT against Tacc2: the z-score is inactive: 0.115.
As for GGGCAUCUCUCAGCAAUGATT against Asb10, the figure is inactive: -0.659; as for GUCUAUCCAGCAUCCUUGCTT against Klk8, inactive: -1.55.
As for GGUGAAGCCAGUUUCUUUATT against Traf3ip2, the figure is inactive: 0.107.
Turning to GGACAACCUUUACUUCUCUTT against Rhox9, the z-score was active: -2.78.
Consider GGCAUGCCUGUUGCUAUGATT against Cyp3a44, for which the z-score is inactive: 0.182.
As for GGAGUUUAUGUGAGUGGCATT against Olfr170, the z-score is inactive: -0.134.
As for GGAAAGCUUAGGAAUUACUTT against Vps37a, the figure is inactive: 0.273; as for “GGUCACAGAUCGGAAUAUGTT against 4931428F04Rik”, inactive: -0.309.
Regarding GGCUGACCUACAUUAGCAATT against Tas1r2, the z-score is inactive: -0.638.
The result for GGCUGGAAUACAGUAAUUCTT against Opn1sw reads inactive: 0.352; that for GCAUUCAUGUGCUCUGCCCTT against Ifitm6, inactive: -0.952.
In the case of CCGUUUUUUUCUUACAAUGTT against Larp6, the z-score is inactive: 0.237.
As to GGGACUUCAUCCGUCAAAATT against Dnajc15, the z-score is inactive: 1.42.
Take CGUGGUUCAUUUACAGGUUTT against Rnf2: the z-score is inactive: 0.783.
GGACAACAUCAUUAGCCUCTT against Egr3: the z-score is inactive: 0.311.
As to GGUGGAGUCUUCUUCCUCATT against Ube2d1, the z-score was inactive: -0.414.
The result for GGCUUCUUUGUUGUUUGCATT against M6pr reads inactive: -1.45; that for CGUAAUGCAUUACCUCAAUTT against Prr18, inactive: 0.85.
On to GGCCAAUUCCAGUGAGAUGTT against Lgsn, for which the z-score was inactive: -0.0795.
As for GGGAAGGAGUUUUUGAAAATT against Tinf2, the figure is inactive: -0.879; as for GUAUGGAUGUGGAAGCCUCTT against Olfr1417, inactive: -0.77.
With GGAGAACACAGGUGGACUUTT against Ppy, the z-score is inactive: 0.125.
As for CGACCAGUCACAAUGGUUATT against Edil3, the figure is inactive: 1.43; as for GGAGCUGUCCAGGUUUAUUTT against Psmd6, active: -2.72.
For the sequence GGUAUUUGUGAAGACGUGUTT against Zfp956, the z-score was inactive: -0.619.
As to GCCCUUGGAAUUUACCACUTT against Aldh8a1, the z-score was inactive: -0.546.
Take GCAGUUCAAGUCUUGAAUATT against Olfr934: the z-score is inactive: -1.09.
Turning to GGAGAAAGUCUACCUGAGCTT against Tmem132d, the z-score was inactive: -0.387.
Turning to CCUGUUGCUCAAAGACUUGTT against Siglec1, the z-score is inactive: -1.45.
The result for GGUUCUUUGGAAUGCUUUUTT against Myl12a reads active: 2.76; that for CCACUAUUUAAUCUUACCGTT against Hoxc13, inactive: 0.175.
In the case of GGCUUUUGGCAACAGCACUTT against Rbm14, the z-score is inactive: -0.494.
